We go through one substance from publication PMC12120245.

Chains of the proteins cited; added tags and fusions are not shown. Lines headed by an entry give the natural chain unless they say otherwise; changes in a name come on top.
UniProt Q15652: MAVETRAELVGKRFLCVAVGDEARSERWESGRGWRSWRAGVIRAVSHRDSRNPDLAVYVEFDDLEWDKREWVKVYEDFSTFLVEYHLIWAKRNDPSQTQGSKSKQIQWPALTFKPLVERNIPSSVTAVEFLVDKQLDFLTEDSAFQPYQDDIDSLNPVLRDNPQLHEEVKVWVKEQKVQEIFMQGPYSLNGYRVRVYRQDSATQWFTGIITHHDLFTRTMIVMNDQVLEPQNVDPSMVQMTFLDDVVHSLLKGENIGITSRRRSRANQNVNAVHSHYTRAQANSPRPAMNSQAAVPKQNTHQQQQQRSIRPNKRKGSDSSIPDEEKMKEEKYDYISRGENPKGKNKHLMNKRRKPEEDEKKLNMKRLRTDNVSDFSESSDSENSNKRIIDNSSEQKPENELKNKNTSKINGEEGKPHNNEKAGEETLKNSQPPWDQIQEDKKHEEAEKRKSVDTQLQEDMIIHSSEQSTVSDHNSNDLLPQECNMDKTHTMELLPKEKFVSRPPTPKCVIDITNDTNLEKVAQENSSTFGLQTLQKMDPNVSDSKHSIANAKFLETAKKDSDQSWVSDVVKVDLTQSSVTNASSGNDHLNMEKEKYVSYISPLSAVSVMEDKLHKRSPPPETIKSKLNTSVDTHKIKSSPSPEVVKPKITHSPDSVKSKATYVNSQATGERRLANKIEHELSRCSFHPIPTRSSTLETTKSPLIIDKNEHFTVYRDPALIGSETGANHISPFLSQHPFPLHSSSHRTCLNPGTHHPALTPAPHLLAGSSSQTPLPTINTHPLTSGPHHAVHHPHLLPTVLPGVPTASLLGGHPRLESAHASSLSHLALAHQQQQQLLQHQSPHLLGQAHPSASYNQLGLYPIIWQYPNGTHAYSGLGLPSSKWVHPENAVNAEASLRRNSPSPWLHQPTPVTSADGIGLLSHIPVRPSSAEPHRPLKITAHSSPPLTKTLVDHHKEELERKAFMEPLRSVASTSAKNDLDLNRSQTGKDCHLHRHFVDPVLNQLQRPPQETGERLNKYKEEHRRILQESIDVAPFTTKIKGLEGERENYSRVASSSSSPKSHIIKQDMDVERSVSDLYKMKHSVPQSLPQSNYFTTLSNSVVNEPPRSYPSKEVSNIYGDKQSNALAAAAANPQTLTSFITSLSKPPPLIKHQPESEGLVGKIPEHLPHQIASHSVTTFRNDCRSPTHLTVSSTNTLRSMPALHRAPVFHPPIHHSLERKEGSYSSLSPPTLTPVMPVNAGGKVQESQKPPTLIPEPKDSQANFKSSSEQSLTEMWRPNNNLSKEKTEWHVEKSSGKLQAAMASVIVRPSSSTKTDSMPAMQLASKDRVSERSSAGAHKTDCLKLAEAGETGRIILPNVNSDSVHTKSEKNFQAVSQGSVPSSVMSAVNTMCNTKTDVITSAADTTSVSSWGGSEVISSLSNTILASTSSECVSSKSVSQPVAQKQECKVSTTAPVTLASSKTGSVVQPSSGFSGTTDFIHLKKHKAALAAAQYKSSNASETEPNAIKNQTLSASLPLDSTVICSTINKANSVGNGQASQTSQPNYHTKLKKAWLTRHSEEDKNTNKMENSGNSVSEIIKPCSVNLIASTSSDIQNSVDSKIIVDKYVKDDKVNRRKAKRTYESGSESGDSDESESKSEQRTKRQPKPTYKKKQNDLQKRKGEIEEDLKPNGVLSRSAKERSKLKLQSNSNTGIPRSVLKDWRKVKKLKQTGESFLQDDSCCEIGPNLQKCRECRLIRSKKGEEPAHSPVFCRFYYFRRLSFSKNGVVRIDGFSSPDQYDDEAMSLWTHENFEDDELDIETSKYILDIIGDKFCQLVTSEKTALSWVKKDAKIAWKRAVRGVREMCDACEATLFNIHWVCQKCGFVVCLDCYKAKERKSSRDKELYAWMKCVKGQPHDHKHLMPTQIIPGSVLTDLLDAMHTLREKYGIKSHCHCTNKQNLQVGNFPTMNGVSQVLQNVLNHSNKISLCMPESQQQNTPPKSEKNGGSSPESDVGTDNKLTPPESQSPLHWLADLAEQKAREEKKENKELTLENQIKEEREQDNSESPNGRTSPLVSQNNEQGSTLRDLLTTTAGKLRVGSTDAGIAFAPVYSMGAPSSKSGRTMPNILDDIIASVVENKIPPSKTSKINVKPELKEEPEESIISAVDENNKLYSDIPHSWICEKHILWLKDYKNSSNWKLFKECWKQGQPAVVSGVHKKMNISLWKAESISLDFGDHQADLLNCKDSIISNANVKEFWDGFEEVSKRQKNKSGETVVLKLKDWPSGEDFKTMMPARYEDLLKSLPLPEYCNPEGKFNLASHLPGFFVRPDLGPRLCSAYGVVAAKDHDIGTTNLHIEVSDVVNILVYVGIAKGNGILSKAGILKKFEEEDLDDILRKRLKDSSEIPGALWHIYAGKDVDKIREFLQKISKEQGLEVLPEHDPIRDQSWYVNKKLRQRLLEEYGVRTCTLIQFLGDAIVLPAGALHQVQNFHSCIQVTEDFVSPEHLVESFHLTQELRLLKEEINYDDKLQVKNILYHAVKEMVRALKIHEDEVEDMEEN
UniProt Q01196: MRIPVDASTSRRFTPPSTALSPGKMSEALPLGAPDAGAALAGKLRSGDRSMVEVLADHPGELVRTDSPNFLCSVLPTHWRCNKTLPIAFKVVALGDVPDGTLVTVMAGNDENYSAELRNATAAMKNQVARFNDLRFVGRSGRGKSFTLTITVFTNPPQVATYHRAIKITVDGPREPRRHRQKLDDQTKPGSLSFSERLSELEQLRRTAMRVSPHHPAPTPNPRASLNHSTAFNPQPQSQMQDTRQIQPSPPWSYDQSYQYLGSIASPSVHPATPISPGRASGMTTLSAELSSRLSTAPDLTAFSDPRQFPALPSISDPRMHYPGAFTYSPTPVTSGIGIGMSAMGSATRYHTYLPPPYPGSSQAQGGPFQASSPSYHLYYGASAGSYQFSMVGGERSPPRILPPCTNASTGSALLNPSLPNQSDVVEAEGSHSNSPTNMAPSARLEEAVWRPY

Results are given in words; binding and its absence hold for the method and conditions named. Binding seen in cells or lysates may run through a third protein. A yes stands for co-enrichment or nearness to the bait. Other partners may have been found.

This assay has as its target JMJD1C (Jumonji Domain Containing 1C) (human (endogenous in AML cell lines)) (UniProt Q15652). The experiment in a line: affinity purification with mass spectrometry; IgG or custom-made JMJD1C antibody with nuclear extracts of NB-4, HL-60, Kasumi-1 and MOLM-13 cells; BC150 plus 0.1% Triton X-100, overnight, 4°C; SDS-PAGE, LC-MS/MS.

In the case of “RUNX1 (AML1) (from UniProt Q01196 1-453)”, the binding entry is recorded as “binds”.
